Assay results published in the supplement of paper PMC5949888.
Most values lie at the floor of the assay. Slopes are relative: functional sequences can read slightly below zero.

Test system: Saccharomyces cerevisiae PS128 hsf1 delta, HSF1(1-493) fusion
Test: growth estimate (transactivation domain function in HSF1 fusion, heat-shock survival) (a.u. (slope of normalised read count over time)); higher = stronger growth at 37°C, i.e. more transactivation activity
Conditions: library: random library

Substance | growth estimate
RSTPSSVDRYDHARFCARGA | < -0.25
SHISSKTRRASWADET | < -0.25
IVPRRTPREPLRAPLKTADL | < -0.25
HQAKLSARAMRLQFATTSLL | < -0.25
ADGDQRCVVGHPPWSYETSF | < -0.25
AST | < -0.25
PFRCQ | < -0.25
QGSDFLAFQKPVLQSAVTLT | < -0.25
RPESTANEGAWLSPLTASAA | < -0.25
SFRVL | < -0.25
LQHRHLARRRCGYGSLDTST | < -0.25
GAQSNLPSIS | < -0.25
VGAP | < -0.25
RPIYP | < -0.25
SYPRVNFSSTMIRINSALGG | < -0.25
QLSQTGPTPLSEACRESVRT | < -0.25
IRSTQPPN | < -0.25
DVIRDTV | < -0.25
TTGGVVGRNKSIAPSWCAKS | < -0.25
LRDWWGVCLRC | < -0.25
FAFYGPTKDATSCTFHRRAM | < -0.25
QLRDEDVRRVEIAKAISPMT | < -0.25
PKHVCVRL | < -0.25
FKSDYGSGRIIFILARANKS | < -0.25
TAIGGHIDQSVNNSAGSGA | < -0.25
SLAPRDHCM | < -0.25

Substance | growth estimate
WLYAFADAQENIVASGNVCN | -0.231
CEQGRPPGTSMSSEQWKCRP | < -0.25
GIIDFPWTRVTLVLGGRLLA | < -0.25
YTQSITYGWSWGNWHFLVG | < -0.25
LCQ | < -0.25
RTRNPPRNAQRLPNVRRLLG | < -0.25
PAVAHKEGLDLL | < -0.25
IVPRKRVRGILESRV | -0.245
PTMTSCS | < -0.25
CYGT | < -0.25
QHISFPIRRHFGPFLVRTNC | < -0.25
WRGERHRKF | < -0.25
ECL | -0.25
LRNGLL | < -0.25
RDG | < -0.25
SNRPAKPPVGGLPLSVNGKP | < -0.25
IDLA | -0.184
NQRPRRISRPTVCFWLKLRG | < -0.25
VQPALRWMQAMQCDHRMIWR | < -0.25
SSVQGALAVCETLRCAKRVR | < -0.25
RDNWNR | < -0.25
SARKKLYLPGNNGVFTRYAS | < -0.25
YHHPT | < -0.25
NTSAIKTRTHESDPPSKARM | < -0.25
IEFVTMGIPFRGCASISHEH | < -0.25
PRVCLARLG | -0.245

Substance | growth estimate
IPK | < -0.25
SAGLIPGRDSSGGTTDWACW | < -0.25
HRFKA | < -0.25
LAFH | < -0.25
GVWDAEHTRA | < -0.25
TAGSAVLWHSYRVW | < -0.25
ERYFRQVWELRGNITRR | < -0.25
AEDSAAM | -0.233
PGCNESCLSCKIGPRLSGGA | < -0.25
FVRSPGGGGKSVISTCDGRH | < -0.25
INP | < -0.25
PQKDTG | < -0.25
IVNWDHPVGGYFADLLECQP | -0.174
KWGVNGN | < -0.25
SRRSSQFAI | < -0.25
TVPRVEEHDSVHVER | < -0.25
NPAV | < -0.25
IYRRLTA | < -0.25
QSKGKLHHLLSRGVRVEYVA | < -0.25
IRTNEHPKPLSQMCEHMAHP | < -0.25
SCSRRCDPVDKGARRLPARK | < -0.25
VGLLRDPLQTPWYKANSHVV | < -0.25
HPALALYY | < -0.25
RGGSSFSAETVTPLGYGRLT | < -0.25
PGKLVFVVMQVVDRLRHSKV | < -0.25
RPIVDLIKRLGWRRRDYSSA | < -0.25

Substance | growth estimate
IYPRITLGSRPD | < -0.25
IRMCLFVVNQSPEAEGCEGG | < -0.25
EDFPSGVPKMCLLHPRIGTR | < -0.25
DAIVA | < -0.25
VHKSSDR | < -0.25
LHGMRMRV | < -0.25
QKP | < -0.25
TFFGALACVWSIFADQYR | < -0.25
RQGHSSTPDSDGPYCL | < -0.25
VAGM | < -0.25
TKFI | < -0.25
SLALRNRSIGHTGYLPLPEV | < -0.25
QGGGLRWS | < -0.25
QGNAGILVSMLAAEKRSRWD | < -0.25
CVHSPHECIGTVLVIRHRA | < -0.25
CQFRPVVKNVECGNQPNCSP | < -0.25
GIGCVRQVLEGGTRPALGTG | < -0.25
VRAMGHQRGEISTLRLAQSL | < -0.25
YLL | < -0.25
RTLQVLQTL | < -0.25
TGTDMVGLSHRHSTESQVGQ | < -0.25
QAS | < -0.25
VFRVP | < -0.25
ENR | < -0.25
TPLER | -0.246
LQCSRKSPIYLPCERLLHWI | < -0.253

For convenience, some entries already given:
Substance | growth estimate
IYPRITLGSRPD | < -0.25
IRMCLFVVNQSPEAEGCEGG | < -0.25
EDFPSGVPKMCLLHPRIGTR | < -0.25
DAIVA | < -0.25

Next entries follow:

Substance | growth estimate
PRIPFRIRS | < -0.25
VDPSRLFPIQDRKRSCRDLT | < -0.25
DWF | < -0.25
LDCTVARGRDRPVS | < -0.25
RSDVSRI | < -0.25
FRRECCFCVMIEILVLGRAP | < -0.25
RKWRRRSNPLFKTEVVDLDR | < -0.25
NLAQVVPPWHKSACPREGGP | -0.0976
KTTLVRSPVWRPPLYLISIT | < -0.25
EENHRYDP | < -0.25
VVTLLSYVYPAVPKLSEGCV | < -0.25
HAGWL | < -0.25
RFHRQPARRIRCARP | < -0.25
YVRTVHFGRFQATFIILLH | < -0.25
SQYIRCHTSCRGDTRAF | -0.212
GRTQRDC | < -0.25
VQCGKLPKIAHCQRSQGRNE | < -0.25
PDERVGRLTVGLEPTALSHP | < -0.25
LVLEFRNVSSQMRWVCFGRD | < -0.25
QLCQITVSIAVISPFSKDFA | < -0.25
VNCSVYVWLS | < -0.25
LASRQS | < -0.25
SVYATNSLAHGSRKNPFATT | < -0.25
RQGTG | < -0.25
LGKSPWFI | < -0.25
RGESTNRVPFRRVARASQPS | < -0.25

Part of the list above, reformatted.
Substance	growth estimate
KTTLVRSPVWRPPLYLISIT	< -0.25
EENHRYDP	< -0.25

(further entries)

Substance | growth estimate
WPLDLRRY | < -0.25
VCGHSKSRPIGMGVTLSPVP | < -0.25
WACVGCKAASYELDQETRLL | < -0.25
SSPTAIRGAVPFSFK | < -0.25
SRLSDRDRNVAIAESQKSHY | -0.246
LGAVDSGDRTTRYKIGVIRR | -0.174
RCRYTNEYSS | < -0.25
TFLLGGPHGASRLPPGLTCI | < -0.25
KDSRPSLGCVSSD | < -0.25
RSVRGHVQPVELWGVLE | < -0.25
NERRTVDPI | < -0.25
LMNNSEGRGIEGIASRGLRW | < -0.25
PTIDTTALLTVPFTLGPTVV | < -0.25
KNRQCIGK | < -0.25
GTYGIVVASAV | < -0.25
GGVVWVSYVFCRECTNMKRP | < -0.25
LGDYHNCFLSEFLHGPLGVG | < -0.25
RPYVAGVEKRSGKNYA | < -0.25
IERSRLDCGDQIFRGVGHYR | < -0.25
RKVVLDP | < -0.25
LCWVPQGLFCSCSGGLLGKV | < -0.25
QSFSTIFELYACTLWKGSLR | < -0.25
QRYILVSAPSRLSM | < -0.25
RRRCRA | < -0.25
VSHLSSRASRIMNAGAWAKR | < -0.25
GIS | < -0.25

Single values from the results shown:
growth estimate with NQRPRRISRPTVCFWLKLRG reads < -0.25
growth estimate with IEFVTMGIPFRGCASISHEH reads < -0.25

Carrying on.

Substance | growth estimate
PYHQRVSGDRLGTSIGSCAL | -0.233
AEF | < -0.25
KSEDGPHYRHRGVGYR | < -0.25
GLPVRGFSESKVGRHRAHNS | < -0.25
RTGGYAFVHHIALWSNSIPP | < -0.25
HCLRRTDYSRTCCMTYCANI | < -0.25
TLECGA | < -0.25
EPMPVL | < -0.25
AKIFREAEGSCSRLGTMVWT | < -0.25
VNTCTICDHRFNQDPIDSRF | < -0.25
GHPEHLEYFE | < -0.25
QRVGPRF | < -0.25
KNGDKLSKKLTKGGRG | < -0.25
CSVSMHYALIQASETSGLQV | < -0.25
YTAAEPRLEAVSVIARETCS | < -0.25
VAPDNAELTGAAASAGTVTC | < -0.25
PHLSNQRLKGGLVPRSGSLK | < -0.25
PQVVRGGVSAPVLSETWKTS | < -0.25
TCSAQPLGPPNQARVYTVSR | < -0.25
RCVLSAK | < -0.25
PVGVSRWFYIRGSATTQRGP | < -0.25
EDLTDCPPVLA | < -0.25
NKVLAREVRGATPLTAGFIA | < -0.25
FSALVRSYGPYGWSTATHAP | < -0.25
TKPRRWVAVQTSLLHVKCGR | < -0.25
TSVPTRTLLRPDYLYDCLRN | < -0.25

Substance | growth estimate
AVAYTSLLDEWYGLDPAQGN | 0.05
DSKSPDKDRNLLSSFRVLYW | < -0.25
ESAASA | < -0.25
RYV | < -0.25
SFRVGRGLCRVLAALGTEHR | < -0.25
IHKAMEVGKVE | < -0.25
TASRCGECWLARVLTGT | < -0.25
SEVAHQHRRASFWRHSTARP | < -0.25
NIDSRARLLSMQ | < -0.25
FLHYADIPPGNGSDHQPDRW | < -0.25
KNEESGC | < -0.25
PRIMAVQSPLG | < -0.25
KAFR | < -0.25
RHSRP | < -0.25
DRNYLLGDMLV | < -0.25
AASNLIDRRWSNDKRLLIRS | -0.243
EKHVRVHKLEIYRPSKVNRR | < -0.25
RSKCSIAIECIVNICTR | < -0.25
LATLTYAKPVQRSAGAQTWW | < -0.25
APSFRHFCGETEKLSGIAVA | < -0.25
